In the supplement of paper PMC10849652:
The list shows a part of the results.

Chains of the proteins cited; added tags and fusions are not shown. Lines headed by an entry give the natural chain unless they say otherwise; changes in a name come on top.
UniProt Q8NFH5: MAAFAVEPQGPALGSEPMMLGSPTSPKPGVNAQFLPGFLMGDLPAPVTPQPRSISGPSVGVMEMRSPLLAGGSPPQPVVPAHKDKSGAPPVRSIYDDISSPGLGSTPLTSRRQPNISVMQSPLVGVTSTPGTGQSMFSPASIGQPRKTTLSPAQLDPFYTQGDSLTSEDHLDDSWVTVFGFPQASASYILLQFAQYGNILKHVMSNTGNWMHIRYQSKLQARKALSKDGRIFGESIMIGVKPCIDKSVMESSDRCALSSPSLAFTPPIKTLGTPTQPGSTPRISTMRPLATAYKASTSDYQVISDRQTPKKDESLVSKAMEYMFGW
UniProt Q32P28: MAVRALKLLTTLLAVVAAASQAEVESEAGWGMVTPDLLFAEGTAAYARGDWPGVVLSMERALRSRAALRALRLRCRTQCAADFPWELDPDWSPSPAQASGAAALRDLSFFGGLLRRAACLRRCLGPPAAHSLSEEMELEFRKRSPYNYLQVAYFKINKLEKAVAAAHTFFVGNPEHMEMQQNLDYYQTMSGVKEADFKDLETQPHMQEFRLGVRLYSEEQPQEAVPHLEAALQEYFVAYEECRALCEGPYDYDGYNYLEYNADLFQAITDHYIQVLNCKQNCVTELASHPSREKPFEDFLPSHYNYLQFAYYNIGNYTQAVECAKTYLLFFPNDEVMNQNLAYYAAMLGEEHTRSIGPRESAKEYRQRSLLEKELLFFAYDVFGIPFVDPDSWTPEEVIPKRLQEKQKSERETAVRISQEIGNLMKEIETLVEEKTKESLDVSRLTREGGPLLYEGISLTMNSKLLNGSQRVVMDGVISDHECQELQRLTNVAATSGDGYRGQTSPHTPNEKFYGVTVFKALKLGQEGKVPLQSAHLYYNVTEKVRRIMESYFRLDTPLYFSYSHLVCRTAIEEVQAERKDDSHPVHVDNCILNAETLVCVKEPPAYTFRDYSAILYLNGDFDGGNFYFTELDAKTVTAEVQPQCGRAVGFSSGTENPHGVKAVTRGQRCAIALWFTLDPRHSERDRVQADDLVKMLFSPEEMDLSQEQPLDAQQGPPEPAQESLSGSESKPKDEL
UniProt Q8TEM1: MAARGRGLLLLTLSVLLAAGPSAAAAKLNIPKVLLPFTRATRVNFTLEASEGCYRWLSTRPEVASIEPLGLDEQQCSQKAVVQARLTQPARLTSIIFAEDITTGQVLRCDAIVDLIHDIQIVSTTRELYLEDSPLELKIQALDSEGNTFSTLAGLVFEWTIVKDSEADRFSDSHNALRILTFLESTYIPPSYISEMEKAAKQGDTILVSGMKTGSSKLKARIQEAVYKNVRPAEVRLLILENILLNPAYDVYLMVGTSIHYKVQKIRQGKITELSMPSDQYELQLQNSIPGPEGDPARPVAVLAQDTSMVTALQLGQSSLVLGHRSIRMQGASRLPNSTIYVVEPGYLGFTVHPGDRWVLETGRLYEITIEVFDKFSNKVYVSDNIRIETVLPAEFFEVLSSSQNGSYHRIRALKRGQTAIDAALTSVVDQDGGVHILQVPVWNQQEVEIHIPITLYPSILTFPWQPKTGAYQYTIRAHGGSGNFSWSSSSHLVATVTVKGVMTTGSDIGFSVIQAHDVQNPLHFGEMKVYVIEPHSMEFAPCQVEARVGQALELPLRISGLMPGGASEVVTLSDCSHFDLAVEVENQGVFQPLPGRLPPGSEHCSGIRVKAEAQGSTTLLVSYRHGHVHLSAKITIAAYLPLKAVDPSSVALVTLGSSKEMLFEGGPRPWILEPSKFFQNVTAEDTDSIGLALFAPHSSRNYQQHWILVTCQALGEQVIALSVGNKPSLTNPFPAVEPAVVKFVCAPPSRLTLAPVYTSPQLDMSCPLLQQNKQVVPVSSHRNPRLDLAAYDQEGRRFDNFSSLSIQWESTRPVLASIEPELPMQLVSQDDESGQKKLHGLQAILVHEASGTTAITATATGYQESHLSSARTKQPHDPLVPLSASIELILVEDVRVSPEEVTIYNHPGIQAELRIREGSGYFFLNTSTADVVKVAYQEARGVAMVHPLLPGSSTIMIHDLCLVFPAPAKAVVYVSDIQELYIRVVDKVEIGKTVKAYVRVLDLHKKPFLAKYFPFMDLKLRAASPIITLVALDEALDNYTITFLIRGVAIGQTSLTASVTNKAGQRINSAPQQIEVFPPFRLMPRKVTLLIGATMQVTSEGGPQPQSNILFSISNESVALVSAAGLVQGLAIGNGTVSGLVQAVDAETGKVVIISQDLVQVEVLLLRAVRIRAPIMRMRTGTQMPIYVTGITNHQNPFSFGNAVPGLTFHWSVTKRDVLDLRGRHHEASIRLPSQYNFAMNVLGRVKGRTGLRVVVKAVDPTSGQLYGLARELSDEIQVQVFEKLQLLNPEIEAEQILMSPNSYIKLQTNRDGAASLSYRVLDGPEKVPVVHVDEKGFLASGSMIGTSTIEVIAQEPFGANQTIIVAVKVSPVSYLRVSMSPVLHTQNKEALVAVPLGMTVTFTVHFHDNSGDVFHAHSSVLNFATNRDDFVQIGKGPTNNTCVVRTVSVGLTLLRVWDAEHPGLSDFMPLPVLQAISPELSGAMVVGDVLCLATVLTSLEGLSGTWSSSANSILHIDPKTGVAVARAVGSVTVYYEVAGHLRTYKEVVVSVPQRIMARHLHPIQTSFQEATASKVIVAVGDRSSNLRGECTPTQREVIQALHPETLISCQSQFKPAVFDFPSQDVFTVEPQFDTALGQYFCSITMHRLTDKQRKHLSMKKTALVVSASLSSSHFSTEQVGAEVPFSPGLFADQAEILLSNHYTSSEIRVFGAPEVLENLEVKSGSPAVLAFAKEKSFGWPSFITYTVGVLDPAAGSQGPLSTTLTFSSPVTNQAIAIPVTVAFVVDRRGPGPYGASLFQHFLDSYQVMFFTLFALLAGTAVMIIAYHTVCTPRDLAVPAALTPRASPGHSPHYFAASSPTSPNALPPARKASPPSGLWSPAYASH
UniProt Q8WZ82: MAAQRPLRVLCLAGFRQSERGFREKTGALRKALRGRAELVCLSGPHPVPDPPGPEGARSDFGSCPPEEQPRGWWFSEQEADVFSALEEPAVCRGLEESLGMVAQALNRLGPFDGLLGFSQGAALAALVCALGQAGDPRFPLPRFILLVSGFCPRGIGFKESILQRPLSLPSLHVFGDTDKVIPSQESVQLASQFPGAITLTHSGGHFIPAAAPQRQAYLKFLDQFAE
UniProt Q9BXS6: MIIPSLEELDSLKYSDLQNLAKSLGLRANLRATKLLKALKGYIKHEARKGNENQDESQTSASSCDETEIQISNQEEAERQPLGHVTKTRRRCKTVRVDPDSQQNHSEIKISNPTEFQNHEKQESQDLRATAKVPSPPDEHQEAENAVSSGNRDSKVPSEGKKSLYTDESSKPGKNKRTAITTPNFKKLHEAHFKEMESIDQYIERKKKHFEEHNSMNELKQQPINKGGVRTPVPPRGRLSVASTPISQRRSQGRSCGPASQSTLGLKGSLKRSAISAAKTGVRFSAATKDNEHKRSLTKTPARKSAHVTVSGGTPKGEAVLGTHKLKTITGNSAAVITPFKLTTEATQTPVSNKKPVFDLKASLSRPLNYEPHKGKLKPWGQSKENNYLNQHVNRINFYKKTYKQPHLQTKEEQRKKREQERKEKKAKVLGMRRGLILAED
UniProt Q99571: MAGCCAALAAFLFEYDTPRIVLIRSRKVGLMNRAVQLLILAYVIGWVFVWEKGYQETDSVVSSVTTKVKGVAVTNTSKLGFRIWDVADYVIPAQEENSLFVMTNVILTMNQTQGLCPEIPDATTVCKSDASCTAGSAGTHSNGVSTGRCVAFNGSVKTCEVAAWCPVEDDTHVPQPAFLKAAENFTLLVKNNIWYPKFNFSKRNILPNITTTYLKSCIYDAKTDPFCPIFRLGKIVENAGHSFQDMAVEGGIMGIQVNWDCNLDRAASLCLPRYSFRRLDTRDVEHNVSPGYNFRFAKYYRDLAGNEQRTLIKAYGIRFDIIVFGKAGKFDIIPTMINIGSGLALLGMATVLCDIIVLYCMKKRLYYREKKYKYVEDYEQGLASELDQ

Key:
Assay in all cases: log2 fold change, soluble protein after heating vs DMSO (PISA); higher = thermal stabilisation; K562 lysate, 10 uM; active = over 0.2 and 3.5 SD of the protein, either way, in both replicates (recomputed)
[1] = compound: CCCS(=O)(=O)Nc1ccc(F)c(C(=O)c2c[nH]c3ncc(-c4ccc(Cl)cc4)cc23)c1F [vemurafenib]
Summary of the method: (§1)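 The values are log-two fold changes in thermal stability compared with solvent controls and come from duplicates. They were obtained by TMTpro 16plex LC-MS/MS, with channel sums equalised, on the supernatant after 21,000xg for 90 min. That supernatant came from crude K562 extract at 1 mg/mL protein treated with 10 μM compound for 30 min, heated for 3 min across 48°C-58°C, pooled and brought to 0.5% NP-40 at 4°C.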

[2] = compound: CCCS(=O)(=O)Nc1ccc(F)c(C(=O)c2c[nH]c3ncc(Cl)cc23)c1F
Summary of the method: as §1

[3] = compound: CCN(CCCOc1ccc2c(Nc3cc(CC(=O)Nc4cccc(F)c4)[nH]n3)ncnc2c1)CCOP(=O)(O)O [barasertib]
Summary of the method: as §1

[4] = compound: CC[C@@H]1C(=O)N(C)c2cnc(Nc3ccc(C(=O)NC4CCN(C)CC4)cc3OC)nc2N1C1CCCC1
Summary of the method: as §1

[5] = compound: CC[C@@H]1C(=O)N(C)c2cnc(Nc3ccc(C(=O)N[C@H]4CC[C@H](N5CCN(CC6CC6)CC5)CC4)cc3OC)nc2N1C(C)C [volasertib]
Summary of the method: as §1

[6] = compound: CCn1c(C(=O)N(C2CC2)C2CC2)cc2c3c(ncn3C)c(Nc3cc(C)n(C)n3)nc21
Summary of the method: as §1

[7] = compound: CCn1cc(-c2ccnc3[nH]c(-c4cccc(CN(C)C)c4)cc23)c(-c2ccc(NC(=O)N(C)C)cc2)n1
Summary of the method: as §1

[8] = compound: CN1CCC(CNc2ccc3ncc(-c4cccc(OC(F)(F)F)c4)n3n2)CC1
Summary of the method: as §1

[9] = compound: CN1CCN(c2nc(C3=C(c4c[nH]c5ccccc45)C(=O)NC3=O)c3ccccc3n2)CC1 [sotrastaurin]
Summary of the method: as §1

[10] = compound: CN1CC[C@H](c2c(O)cc(O)c3c(=O)cc(-c4ccccc4Cl)oc23)[C@H](O)C1 [alvocidib]
Summary of the method: as §1

[11] = compound: CN1CCc2c(c3ccccc3n2Cc2ccc(C(=O)NO)cc2)C1 [Tubastatin A]
Summary of the method: as §1

[12] = compound: CNC(=O)c1ccc(Nc2ncc(C(F)(F)F)c(NCc3nccnc3N(C)S(C)(=O)=O)n2)cc1 [defactinib]
Summary of the method: as §1

[13] = compound: COC(=O)N[C@@H](C)CNc1nccc(-c2cn(C(C)C)nc2-c2cc(Cl)cc(NS(C)(=O)=O)c2F)n1 [encorafenib]
Summary of the method: as §1

[14] = compound: COC(=O)[C@H](CCSC)NC(=O)C1=C(C=C(C=C1)NC[C@H](CS)N)C2=CC=CC=C2
Summary of the method: as §1

[15] = compound: COc1cc(Nc2ncc3c(n2)-c2ccc(Cl)cc2C(c2c(F)cccc2OC)=NC3)ccc1C(=O)O [alisertib]
Summary of the method: as §1

[16] = compound: COc1cc2nc(-c3cc(F)ccc3O)nc(N[C@@H]3CNC[C@H]3C(C)(C)O)c2cc1OC
Summary of the method: as §1

[17] = compound: COc1cc2ncnc(Nc3ccc(F)c(Cl)c3)c2cc1OCCCN1CCOCC1 [gefitinib]
Summary of the method: as §1

[18] = compound: CN1CCN(CCOc2cc(OC3CCOCC3)c3c(Nc4c(Cl)ccc5c4OCO5)ncnc3c2)CC1 [saracatinib]
Summary of the method: as §1

[19] = compound: CNC(=O)C1=CC=CC=C1NC2=NC(=NC=C2Cl)NC3=C(C=C(C=C3)N4CCOCC4)OC
Summary of the method: as §1

[20] = compound: CNc1nc(-c2ccc3c(N)n[nH]c3c2)cc(N2C[C@@H](C(=O)NC3CCCCC3)CC[C@H]2C)n1
Summary of the method: as §1

Measured: log2 fold change

NUP35 (UniProt Q8NFH5)
inactive: [1] 0.143 | [2] -0.016 | [3] -0.006 | [4] 0.162 | [5] -0.052 | [6] 0.038 | [7] 0.005 | [8] -0.043 | [9] -0.07 | [10] 0.068 | [11] -0.074 | [12] -0.381 | [13] -0.166 | [14] -0.129 | [15] -0.045 | [16] -0.064 | [17] -0.228

P3H1 (UniProt Q32P28)
inactive: [1] -0.027 | [2] 0.028 | [3] -0.002 | [4] -0.019 | [5] -0.001 | [6] -0.009 | [7] -0.069 | [8] -0.019 | [18] 0.01 | [9] 0.015 | [10] 0.005 | [11] -0.002 | [19] 0.019 | [12] 0.004 | [20] 0.01 | [13] 0.035 | [14] -0.035 | [15] -0.025 | [16] 0.025 | [17] -0.008

NUP210 (UniProt Q8TEM1)
inactive: [1] -0.009 | [2] 0.048 | [3] 0.072 | [4] -0.004 | [5] 0.006 | [6] 0.036 | [7] 0.012 | [8] -0.015 | [18] 0.029 | [9] -0.004 | [10] 0.014 | [11] 0.107 | [19] -0.061 | [12] 0.035 | [20] -0.011 | [13] 0.086 | [14] 0.145 | [15] 0.009 | [16] 0.002 | [17] 0.003

OVCA2 (UniProt Q8WZ82)
inactive: [1] -0.103 | [2] 0.023 | [3] -0.047 | [4] -0.078 | [5] -0.001 | [6] 0.027 | [7] -0.018 | [8] 0.083 | [18] 0.084 | [9] 0.1 | [10] -0.084 | [11] -0.045 | [19] -0.016 | [12] 0.092 | [20] -0.065 | [13] -0.026 | [14] 0.031 | [15] -0.023 | [16] -0.098 | [17] -0.24

NUSAP1 (UniProt Q9BXS6)
active: [7] -0.399
inactive: [1] 0.001 | [2] 0.009 | [3] -0.002 | [4] 0.073 | [5] 0.004 | [6] -0.009 | [8] 0.189 | [18] 0.019 | [9] -0.001 | [10] -0.17 | [11] 0.029 | [19] -0.02 | [12] 0.027 | [20] 0.07 | [13] 0.012 | [14] -0.028 | [15] 0.01 | [16] -0.002 | [17] -0.012

P2RX4 isoform 2 (UniProt Q99571)
inactive: [1] 0.133 | [2] -0.049 | [3] -0.042 | [4] 0.047 | [5] -0.034 | [6] 0.022 | [7] -0.276 | [8] 0.229 | [18] -0.016 | [9] 0.099 | [10] -0.097 | [11] 0.033 | [19] 0.038 | [12] -0.093 | [20] 0.1 | [13] 0.001 | [14] 0.028 | [16] 0.098
